Laboratory results taken from the supplement of paper PMC10849652.
This is one part of the list.

Protein sequences, listed by entry. Tags and fused reporters are not part of them. Lines headed by an entry give the natural chain unless they say otherwise; changes in a name come on top.
UniProt P43246, whole entry, looked up: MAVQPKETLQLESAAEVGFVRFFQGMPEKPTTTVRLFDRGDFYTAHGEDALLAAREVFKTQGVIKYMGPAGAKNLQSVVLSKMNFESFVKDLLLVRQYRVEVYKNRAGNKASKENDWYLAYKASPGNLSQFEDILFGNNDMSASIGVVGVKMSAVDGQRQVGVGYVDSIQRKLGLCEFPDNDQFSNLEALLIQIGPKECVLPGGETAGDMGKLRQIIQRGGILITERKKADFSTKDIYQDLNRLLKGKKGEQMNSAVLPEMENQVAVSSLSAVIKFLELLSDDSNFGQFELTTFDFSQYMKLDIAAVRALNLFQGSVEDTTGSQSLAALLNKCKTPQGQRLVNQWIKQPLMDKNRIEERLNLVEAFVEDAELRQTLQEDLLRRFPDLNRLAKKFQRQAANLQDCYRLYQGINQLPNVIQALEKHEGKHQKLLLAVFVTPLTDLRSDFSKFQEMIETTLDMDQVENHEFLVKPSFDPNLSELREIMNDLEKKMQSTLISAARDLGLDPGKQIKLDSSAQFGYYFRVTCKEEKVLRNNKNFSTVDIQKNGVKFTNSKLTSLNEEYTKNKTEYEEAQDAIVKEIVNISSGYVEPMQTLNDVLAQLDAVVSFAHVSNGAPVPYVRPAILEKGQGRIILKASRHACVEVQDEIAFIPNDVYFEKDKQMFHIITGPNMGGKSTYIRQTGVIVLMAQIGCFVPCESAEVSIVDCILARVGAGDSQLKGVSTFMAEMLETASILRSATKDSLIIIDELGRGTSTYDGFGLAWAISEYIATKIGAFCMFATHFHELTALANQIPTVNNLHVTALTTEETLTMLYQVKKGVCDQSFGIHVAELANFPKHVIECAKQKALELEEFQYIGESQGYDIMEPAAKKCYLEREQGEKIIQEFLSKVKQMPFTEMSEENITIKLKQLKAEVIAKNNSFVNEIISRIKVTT
UniProt Q9Y2Z2: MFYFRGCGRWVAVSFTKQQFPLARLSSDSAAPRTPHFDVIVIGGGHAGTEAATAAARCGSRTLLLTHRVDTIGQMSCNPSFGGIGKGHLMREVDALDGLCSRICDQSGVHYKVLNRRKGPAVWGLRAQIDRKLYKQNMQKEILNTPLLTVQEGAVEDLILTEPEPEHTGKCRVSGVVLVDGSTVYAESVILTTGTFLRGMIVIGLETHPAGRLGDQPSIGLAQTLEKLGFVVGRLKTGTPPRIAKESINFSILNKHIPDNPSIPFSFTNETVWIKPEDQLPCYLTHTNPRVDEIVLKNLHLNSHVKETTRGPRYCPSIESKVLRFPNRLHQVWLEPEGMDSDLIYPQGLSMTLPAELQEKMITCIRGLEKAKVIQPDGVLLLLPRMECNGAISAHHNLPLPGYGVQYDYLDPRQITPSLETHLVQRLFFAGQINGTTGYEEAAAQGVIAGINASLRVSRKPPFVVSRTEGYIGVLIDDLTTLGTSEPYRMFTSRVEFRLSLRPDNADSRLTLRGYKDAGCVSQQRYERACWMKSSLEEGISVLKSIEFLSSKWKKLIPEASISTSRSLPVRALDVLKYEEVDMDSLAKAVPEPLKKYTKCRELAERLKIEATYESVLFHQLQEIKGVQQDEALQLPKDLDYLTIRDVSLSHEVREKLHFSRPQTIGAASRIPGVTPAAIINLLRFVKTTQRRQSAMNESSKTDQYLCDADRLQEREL
UniProt Q15390: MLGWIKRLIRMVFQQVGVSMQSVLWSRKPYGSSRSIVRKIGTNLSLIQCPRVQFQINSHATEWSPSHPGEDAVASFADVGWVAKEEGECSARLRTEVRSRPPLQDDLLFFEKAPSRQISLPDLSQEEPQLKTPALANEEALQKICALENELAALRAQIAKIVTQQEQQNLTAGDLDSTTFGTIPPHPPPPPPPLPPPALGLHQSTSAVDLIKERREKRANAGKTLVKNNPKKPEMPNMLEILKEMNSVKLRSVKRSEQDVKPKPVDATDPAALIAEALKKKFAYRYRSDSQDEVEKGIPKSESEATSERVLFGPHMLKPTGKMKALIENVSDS
UniProt P35580, whole entry, looked up: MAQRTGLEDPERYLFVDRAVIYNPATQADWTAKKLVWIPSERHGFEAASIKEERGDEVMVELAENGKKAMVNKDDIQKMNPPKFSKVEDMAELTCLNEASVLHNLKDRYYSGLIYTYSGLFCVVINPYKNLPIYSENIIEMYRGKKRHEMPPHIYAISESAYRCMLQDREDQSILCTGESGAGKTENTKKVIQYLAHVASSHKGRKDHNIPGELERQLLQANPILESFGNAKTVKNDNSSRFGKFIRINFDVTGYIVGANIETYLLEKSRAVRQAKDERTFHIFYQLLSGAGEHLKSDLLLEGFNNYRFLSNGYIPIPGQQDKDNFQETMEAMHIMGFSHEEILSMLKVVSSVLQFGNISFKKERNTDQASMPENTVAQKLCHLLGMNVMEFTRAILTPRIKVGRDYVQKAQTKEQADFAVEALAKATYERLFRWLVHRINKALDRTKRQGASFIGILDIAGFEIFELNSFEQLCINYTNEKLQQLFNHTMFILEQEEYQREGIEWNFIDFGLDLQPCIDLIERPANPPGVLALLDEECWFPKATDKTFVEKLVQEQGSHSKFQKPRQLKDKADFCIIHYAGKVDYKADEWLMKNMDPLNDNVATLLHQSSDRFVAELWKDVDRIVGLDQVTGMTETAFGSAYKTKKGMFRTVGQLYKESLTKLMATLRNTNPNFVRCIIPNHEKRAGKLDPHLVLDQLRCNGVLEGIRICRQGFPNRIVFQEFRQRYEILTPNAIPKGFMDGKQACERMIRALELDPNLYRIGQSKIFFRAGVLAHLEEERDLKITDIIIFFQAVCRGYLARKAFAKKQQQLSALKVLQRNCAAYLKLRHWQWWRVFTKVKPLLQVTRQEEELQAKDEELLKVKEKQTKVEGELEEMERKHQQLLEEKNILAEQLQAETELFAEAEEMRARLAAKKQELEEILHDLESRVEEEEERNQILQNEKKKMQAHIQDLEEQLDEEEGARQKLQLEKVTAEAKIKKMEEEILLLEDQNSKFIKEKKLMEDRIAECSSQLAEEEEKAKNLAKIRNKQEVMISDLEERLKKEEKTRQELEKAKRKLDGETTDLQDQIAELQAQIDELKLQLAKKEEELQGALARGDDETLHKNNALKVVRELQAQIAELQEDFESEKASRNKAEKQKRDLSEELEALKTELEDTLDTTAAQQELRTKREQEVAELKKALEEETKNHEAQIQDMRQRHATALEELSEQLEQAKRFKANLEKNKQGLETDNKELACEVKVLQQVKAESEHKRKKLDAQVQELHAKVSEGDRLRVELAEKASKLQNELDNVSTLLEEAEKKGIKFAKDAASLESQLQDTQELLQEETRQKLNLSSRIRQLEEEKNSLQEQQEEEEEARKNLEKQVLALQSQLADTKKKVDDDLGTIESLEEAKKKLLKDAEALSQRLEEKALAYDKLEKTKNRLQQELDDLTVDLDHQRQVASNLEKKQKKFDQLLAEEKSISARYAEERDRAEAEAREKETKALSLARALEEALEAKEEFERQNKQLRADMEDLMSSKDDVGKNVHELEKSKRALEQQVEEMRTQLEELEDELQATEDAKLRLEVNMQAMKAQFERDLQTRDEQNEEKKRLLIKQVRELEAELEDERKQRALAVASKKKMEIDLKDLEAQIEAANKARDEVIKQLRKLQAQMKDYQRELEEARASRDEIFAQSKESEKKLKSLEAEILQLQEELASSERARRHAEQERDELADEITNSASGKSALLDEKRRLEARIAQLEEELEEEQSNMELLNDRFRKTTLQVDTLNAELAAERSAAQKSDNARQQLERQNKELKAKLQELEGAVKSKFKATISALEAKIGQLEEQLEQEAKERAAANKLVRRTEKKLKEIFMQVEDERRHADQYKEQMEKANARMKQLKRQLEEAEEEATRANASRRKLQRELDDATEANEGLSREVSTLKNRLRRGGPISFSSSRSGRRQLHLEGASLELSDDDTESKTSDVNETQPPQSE
UniProt Q15800: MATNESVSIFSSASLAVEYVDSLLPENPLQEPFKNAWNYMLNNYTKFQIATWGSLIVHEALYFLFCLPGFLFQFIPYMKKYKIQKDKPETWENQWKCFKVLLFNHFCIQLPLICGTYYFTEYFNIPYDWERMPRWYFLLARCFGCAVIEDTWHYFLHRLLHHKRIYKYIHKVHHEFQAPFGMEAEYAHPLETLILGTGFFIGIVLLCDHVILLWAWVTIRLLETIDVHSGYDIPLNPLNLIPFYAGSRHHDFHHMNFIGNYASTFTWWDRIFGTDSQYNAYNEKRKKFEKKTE
UniProt P84157: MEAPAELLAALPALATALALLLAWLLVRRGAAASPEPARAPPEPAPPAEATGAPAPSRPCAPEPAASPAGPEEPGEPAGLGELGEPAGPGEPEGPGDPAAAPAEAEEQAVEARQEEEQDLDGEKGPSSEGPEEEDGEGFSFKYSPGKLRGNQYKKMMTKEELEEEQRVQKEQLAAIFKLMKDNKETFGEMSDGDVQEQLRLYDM
UniProt Q9BUK6: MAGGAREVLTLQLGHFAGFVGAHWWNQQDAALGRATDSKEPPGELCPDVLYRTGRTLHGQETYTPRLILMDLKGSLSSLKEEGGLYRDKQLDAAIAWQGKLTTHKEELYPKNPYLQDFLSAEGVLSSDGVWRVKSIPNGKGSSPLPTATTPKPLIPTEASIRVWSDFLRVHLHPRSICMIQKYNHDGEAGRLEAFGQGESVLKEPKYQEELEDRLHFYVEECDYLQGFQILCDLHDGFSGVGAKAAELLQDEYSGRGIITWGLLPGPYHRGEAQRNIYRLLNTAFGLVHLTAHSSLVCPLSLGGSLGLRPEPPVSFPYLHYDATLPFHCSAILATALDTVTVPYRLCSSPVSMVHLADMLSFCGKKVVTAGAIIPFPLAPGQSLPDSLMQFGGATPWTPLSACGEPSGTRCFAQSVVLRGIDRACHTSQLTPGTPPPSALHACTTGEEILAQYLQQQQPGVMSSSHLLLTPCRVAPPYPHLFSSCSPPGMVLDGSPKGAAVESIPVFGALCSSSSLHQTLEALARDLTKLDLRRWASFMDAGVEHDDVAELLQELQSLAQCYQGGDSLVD
UniProt Q96S97: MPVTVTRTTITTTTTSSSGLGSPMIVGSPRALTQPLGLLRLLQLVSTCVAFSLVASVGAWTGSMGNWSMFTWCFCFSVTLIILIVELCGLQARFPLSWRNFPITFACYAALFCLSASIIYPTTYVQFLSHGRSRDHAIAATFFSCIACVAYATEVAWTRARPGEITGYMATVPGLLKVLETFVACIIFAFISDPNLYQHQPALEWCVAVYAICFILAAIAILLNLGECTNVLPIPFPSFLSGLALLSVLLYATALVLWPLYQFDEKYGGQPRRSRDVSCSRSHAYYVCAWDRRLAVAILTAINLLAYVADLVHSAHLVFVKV
UniProt P42285: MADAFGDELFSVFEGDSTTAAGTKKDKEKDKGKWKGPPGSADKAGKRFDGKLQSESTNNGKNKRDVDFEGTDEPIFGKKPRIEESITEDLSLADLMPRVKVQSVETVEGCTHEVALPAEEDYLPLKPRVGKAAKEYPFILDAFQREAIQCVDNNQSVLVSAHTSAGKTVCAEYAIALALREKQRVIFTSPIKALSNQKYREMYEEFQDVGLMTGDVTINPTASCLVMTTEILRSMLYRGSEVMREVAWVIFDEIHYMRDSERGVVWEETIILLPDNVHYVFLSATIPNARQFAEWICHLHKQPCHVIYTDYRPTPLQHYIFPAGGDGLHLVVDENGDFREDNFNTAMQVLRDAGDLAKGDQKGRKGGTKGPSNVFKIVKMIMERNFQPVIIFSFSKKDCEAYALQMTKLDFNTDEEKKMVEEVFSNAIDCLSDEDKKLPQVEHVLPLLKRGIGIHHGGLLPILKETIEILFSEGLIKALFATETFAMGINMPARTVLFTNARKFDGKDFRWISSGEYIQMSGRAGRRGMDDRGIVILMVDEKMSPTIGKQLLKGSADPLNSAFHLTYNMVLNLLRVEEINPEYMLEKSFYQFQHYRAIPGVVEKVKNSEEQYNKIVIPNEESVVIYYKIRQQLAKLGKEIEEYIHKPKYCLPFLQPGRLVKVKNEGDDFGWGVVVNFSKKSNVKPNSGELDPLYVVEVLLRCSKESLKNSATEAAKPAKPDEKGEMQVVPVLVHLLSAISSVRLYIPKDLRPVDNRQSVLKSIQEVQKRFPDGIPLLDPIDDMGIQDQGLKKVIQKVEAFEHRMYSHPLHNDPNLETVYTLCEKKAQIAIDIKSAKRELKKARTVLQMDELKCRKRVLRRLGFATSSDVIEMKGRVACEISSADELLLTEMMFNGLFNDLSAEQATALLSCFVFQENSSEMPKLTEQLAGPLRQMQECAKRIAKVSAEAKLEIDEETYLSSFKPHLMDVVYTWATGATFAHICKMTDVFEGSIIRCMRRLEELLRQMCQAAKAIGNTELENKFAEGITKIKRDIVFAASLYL

How the values were obtained:
Assay in all cases: log2 fold change, soluble protein after heating vs DMSO (PISA); higher = thermal stabilisation; K562 cells, 10 uM, 30 min; active = over 0.2 and 3.5 SD of the protein, either way, in both replicates (recomputed)
[1] = compound: COC1=CC=C(C=C1)CN2C=CC3=C2C=C(C=C3)C(=O)NO
In short: (§1)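 Soluble protein was quantified by TMTpro 16plex LC-MS/MS after channel sums were equalised. It was obtained as the supernatant after 21,000xg for 90 min from pooled aliquots of K562 cells (2×10^6 cells/mL, 10 μM compound, 30 min) heated for 3 min across 48°C-58°C and extracted in PBS with 0.5% NP-40 at 4°C. Thermal stability values are relative to control samples and come from duplicates. They are given as log2 fold changes.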

filanesib = compound: CON(C)C(=O)N1N=C(c2cc(F)ccc2F)S[C@@]1(CCCN)c1ccccc1 [filanesib]
In short: as §1

zotarolimus = compound: CO[C@H]1C[C@@H]2CC[C@@H](C)[C@@](O)(O2)C(=O)C(=O)N2CCCC[C@H]2C(=O)O[C@H]([C@H](C)C[C@@H]2CC[C@H](n3cnnn3)[C@H](OC)C2)CC(=O)[C@H](C)/C=C(\C)[C@@H](O)[C@@H](OC)C(=O)[C@H](C)C[C@H](C)/C=C/C=C/C=C/1C [zotarolimus]
In short: as §1

idasanutlin = compound: COc1cc(C(=O)O)ccc1NC(=O)[C@@H]1N[C@@H](CC(C)(C)C)[C@](C#N)(c2ccc(Cl)cc2F)[C@H]1c1cccc(Cl)c1F [idasanutlin]
In short: as §1

alisertib = compound: COc1cc(Nc2ncc3c(n2)-c2ccc(Cl)cc2C(c2c(F)cccc2OC)=NC3)ccc1C(=O)O [alisertib]
In short: as §1

[2] = compound: COc1cc2nc(-c3cc(F)ccc3O)nc(N[C@@H]3CNC[C@H]3C(C)(C)O)c2cc1OC
In short: as §1

gefitinib = compound: COc1cc2ncnc(Nc3ccc(F)c(Cl)c3)c2cc1OCCCN1CCOCC1 [gefitinib]
In short: as §1

[3] = compound: COc1cccc2cc(-c3nc([C@H]4CC[C@H](C(=O)O)CC4)n4ncnc(N)c34)[nH]c12
In short: as §1

lapatinib = compound: CS(=O)(=O)CCNCc1ccc(-c2ccc3ncnc(Nc4ccc(OCc5cccc(F)c5)c(Cl)c4)c3c2)o1 [lapatinib]
In short: as §1

pictilisib = compound: CS(=O)(=O)N1CCN(Cc2cc3nc(-c4cccc5[nH]ncc45)nc(N4CCOCC4)c3s2)CC1 [pictilisib]
In short: as §1

[4] = compound: CS(=O)(=O)c1ccc(-c2cnc(N)c(C(=O)Nc3ccccc3)n2)cc1
In short: as §1

crizotinib = compound: C[C@@H](Oc1cc(-c2cnn(C3CCNCC3)c2)cnc1N)c1c(Cl)ccc(F)c1Cl [crizotinib]
In short: as §1

[5] = compound: C[C@@H]1COCCN1C2=NC(=NC(=C2)C3(CC3)S(=O)(=O)C)C4=C5C=CNC5=CC=C4
In short: as §1

[6] = compound: C[C@H](C1=CC=C(C=C1)C(=O)NC2=C3C=CNC3=NC=C2)N
In short: as §1

duvelisib = compound: C[C@H](Nc1ncnc2nc[nH]c12)c1cc2cccc(Cl)c2c(=O)n1-c1ccccc1 [duvelisib]
In short: as §1

gandotinib = compound: Cc1cc(Nc2cc(CN3CCOCC3)c3nc(C)c(Cc4ccc(Cl)cc4F)n3n2)n[nH]1 [gandotinib]
In short: as §1

tozasertib = compound: Cc1cc(Nc2cc(N3CCN(C)CC3)nc(Sc3ccc(NC(=O)C4CC4)cc3)n2)n[nH]1 [tozasertib]
In short: as §1

[7] = compound: Cc1cc(SCc2sc(-c3ccc(C(F)(F)F)cc3)nc2C)ccc1OCC(=O)O
In short: as §1

doramapimod = compound: Cc1ccc(-n2nc(C(C)(C)C)cc2NC(=O)Nc2ccc(OCCN3CCOCC3)c3ccccc23)cc1 [doramapimod]
In short: as §1

ispinesib = compound: Cc1ccc(C(=O)N(CCCN)[C@@H](c2nc3cc(Cl)ccc3c(=O)n2Cc2ccccc2)C(C)C)cc1 [ispinesib]
In short: as §1

| Target | log2 fold change [1] | log2 fold change (filanesib) | log2 fold change (zotarolimus) | log2 fold change (idasanutlin) | log2 fold change (alisertib) | log2 fold change [2] | log2 fold change (gefitinib) | log2 fold change [3] | log2 fold change (lapatinib) | log2 fold change (pictilisib) | log2 fold change [4] | log2 fold change (crizotinib) | log2 fold change [5] | log2 fold change [6] | log2 fold change (duvelisib) | log2 fold change (gandotinib) | log2 fold change (tozasertib) | log2 fold change [7] | log2 fold change (doramapimod) | log2 fold change (ispinesib) |
| --- | --- | --- | --- | --- | --- | --- | --- | --- | --- | --- | --- | --- | --- | --- | --- | --- | --- | --- | --- | --- |
| MRPS28 (UniProt Q9Y2Q9) | inactive: -0.012 | inactive: 0.036 | inactive: 0.062 | inactive: -0.118 | inactive: 0.049 | inactive: -0.037 | inactive: 0.167 | inactive: -0.075 | inactive: 0.098 | inactive: -0.051 | inactive: -0.064 | inactive: 0.036 | inactive: -0.046 | inactive: 0.141 | inactive: -0.041 | inactive: -0.153 | inactive: -0.08 | inactive: 0.077 | inactive: 0.048 | inactive: -0.094 |
| MRPS2 (UniProt Q9Y399) | inactive: -0.052 | inactive: -0.05 | inactive: -0.02 | inactive: -0.054 | inactive: -0.19 | inactive: 0.005 | inactive: -0.036 | inactive: 0.006 | inactive: 0.071 | inactive: -0.015 | inactive: -0.043 | inactive: 0.078 | inactive: 0.032 | inactive: 0.048 | – | inactive: -0.117 | – | inactive: 0.022 | inactive: -0.049 | active: -0.352 |
| MSH2 (UniProt P43246) | inactive: 0.072 | inactive: 0 | inactive: 0.057 | inactive: -0.019 | inactive: -0.018 | inactive: 0.024 | inactive: 0.007 | inactive: -0.026 | inactive: -0.021 | inactive: 0.144 | inactive: 0.057 | inactive: 0.04 | inactive: 0.056 | inactive: -0.038 | – | inactive: -0.02 | – | inactive: 0.117 | inactive: -0.067 | inactive: 0.09 |
| MRPS7 (UniProt Q9Y2R9) | inactive: -0.02 | inactive: 0.042 | inactive: 0.045 | inactive: -0.053 | inactive: -0.072 | inactive: -0.001 | inactive: -0.095 | inactive: -0.101 | inactive: 0.077 | inactive: -0.137 | inactive: 0.014 | inactive: -0.015 | inactive: -0.009 | inactive: 0.124 | inactive: 0.011 | inactive: 0.055 | inactive: -0.025 | inactive: 0.001 | inactive: 0.034 | inactive: -0.257 |
| MTO1 isoform 6 (UniProt Q9Y2Z2) | inactive: 0.003 | inactive: -0.021 | inactive: -0.022 | inactive: -0.099 | inactive: 0.093 | inactive: 0.075 | inactive: 0.075 | inactive: -0.001 | inactive: 0.013 | inactive: 0.164 | inactive: 0.126 | inactive: -0.006 | inactive: 0.239 | inactive: 0.096 | inactive: 0.167 | inactive: -0.057 | inactive: -0.142 | inactive: 0.002 | inactive: -0.037 | inactive: -0.153 |
| MTFR1 (UniProt Q15390) | inactive: -0.027 | inactive: -0.09 | inactive: -0.022 | inactive: -0.013 | inactive: -0.024 | inactive: -0.042 | inactive: 0.069 | inactive: 0.08 | inactive: -0.026 | inactive: -0.032 | inactive: -0.014 | inactive: -0.139 | inactive: -0.008 | inactive: -0.014 | inactive: 0.013 | inactive: -0.037 | inactive: -0.026 | inactive: -0.039 | inactive: -0.015 | inactive: -0.074 |
| MRPS30 (UniProt Q9NP92) | inactive: -0.057 | inactive: 0.144 | inactive: 0.041 | inactive: -0.214 | inactive: -0.117 | inactive: -0.019 | inactive: -0.184 | inactive: -0.053 | inactive: 0.146 | inactive: -0.108 | inactive: 0.021 | inactive: 0.023 | inactive: -0.155 | inactive: 0.254 | inactive: -0.087 | inactive: 0.077 | inactive: 0.001 | inactive: 0.1 | inactive: 0.085 | inactive: -0.205 |
| MTA1 (UniProt Q13330) | inactive: 0.087 | inactive: 0.042 | inactive: 0.083 | inactive: 0.038 | inactive: -0.065 | inactive: -0.048 | inactive: -0.015 | inactive: -0.117 | inactive: 0.065 | inactive: 0.015 | inactive: -0.018 | inactive: -0.016 | inactive: 0.038 | inactive: -0.104 | inactive: -0.012 | inactive: 0.038 | inactive: 0.175 | inactive: 0.076 | inactive: -0.038 | inactive: -0.11 |
| MYH10 isoform 3 (UniProt P35580) | inactive: 0.092 | inactive: -0.116 | inactive: 0.011 | inactive: -0.065 | inactive: -0.025 | inactive: 0.036 | inactive: -0.005 | inactive: -0.007 | inactive: -0.006 | inactive: -0.033 | inactive: -0.013 | inactive: -0.038 | inactive: 0.056 | inactive: -0.026 | – | inactive: -0.004 | – | inactive: 0.013 | inactive: 0.009 | inactive: 0.01 |
| MTDH (UniProt Q86UE4) | inactive: -0.029 | inactive: 0.398 | inactive: -0.049 | inactive: 0.171 | inactive: -0.041 | inactive: -0.069 | inactive: -0.018 | inactive: -0.142 | inactive: 0.172 | inactive: -0.022 | inactive: -0.164 | inactive: 0.031 | inactive: -0.53 | inactive: 0.314 | inactive: -0.125 | inactive: 0.347 | inactive: -0.013 | inactive: -0.016 | inactive: 0.228 | inactive: -0.24 |
| MSMO1 (UniProt Q15800) | inactive: -0.207 | inactive: -0.159 | inactive: -0.06 | inactive: -0.101 | inactive: -0.012 | inactive: -0.119 | inactive: 0.009 | inactive: 0.06 | inactive: 0.013 | inactive: -0.048 | inactive: 0.043 | inactive: -0.045 | inactive: -0.002 | inactive: -0.074 | inactive: 0.003 | inactive: -0.18 | inactive: -0.007 | inactive: -0.036 | inactive: -0.061 | inactive: -0.076 |
| MXRA7 (UniProt P84157) | inactive: -0.248 | inactive: 0.135 | inactive: 0.023 | inactive: -0.066 | inactive: -0.017 | inactive: -0.007 | inactive: 0.058 | inactive: 0.067 | inactive: 0 | inactive: -0.053 | inactive: 0.043 | inactive: -0.012 | inactive: 0.051 | inactive: -0.138 | – | inactive: -0.122 | – | inactive: 0.047 | inactive: 0.035 | inactive: 0.103 |
| MSTO1 (UniProt Q9BUK6) | inactive: -0.022 | inactive: -0.078 | inactive: -0.045 | inactive: -0.08 | inactive: 0.007 | inactive: 0.024 | inactive: -0.018 | inactive: 0.025 | inactive: -0.009 | inactive: 0.021 | inactive: -0.014 | inactive: -0.081 | inactive: 0.09 | inactive: 0.025 | – | inactive: -0.003 | – | inactive: 0.009 | inactive: 0.027 | inactive: -0.053 |
| MRTFB isoform 5 (UniProt Q9ULH7) | inactive: 0.013 | inactive: 0.003 | inactive: 0.013 | inactive: 0.027 | inactive: -0.062 | inactive: 0.035 | inactive: -0.026 | inactive: -0.034 | inactive: -0.019 | inactive: 0.015 | inactive: 0.017 | inactive: -0.046 | inactive: 0.06 | inactive: -0.004 | inactive: 0.068 | inactive: -0.012 | inactive: 0.001 | inactive: -0.05 | inactive: -0.037 | inactive: -0.013 |
| MYADM (UniProt Q96S97) | inactive: 0.082 | inactive: -0.113 | inactive: -0.012 | inactive: -0.002 | inactive: -0.011 | inactive: -0.067 | inactive: -0.021 | inactive: -0.128 | inactive: 0.082 | inactive: -0.132 | inactive: -0.068 | inactive: -0.098 | inactive: -0.007 | inactive: 0.05 | inactive: 0.065 | inactive: 0.133 | inactive: 0.051 | inactive: 0.115 | inactive: 0.026 | inactive: -0.22 |
| MRPL58 (UniProt Q14197) | inactive: 0.032 | inactive: 0.108 | inactive: 0.105 | inactive: -0.013 | inactive: -0.001 | inactive: -0.03 | inactive: -0.007 | inactive: -0.051 | inactive: 0.074 | inactive: 0.046 | inactive: 0.016 | inactive: -0.023 | inactive: -0.065 | inactive: 0.154 | inactive: -0.063 | inactive: 0.063 | inactive: 0.067 | inactive: 0.087 | inactive: 0.131 | inactive: -0.127 |
| MTREX (UniProt P42285) | inactive: 0.014 | inactive: -0.048 | inactive: -0.003 | inactive: -0.089 | inactive: -0.045 | inactive: 0.073 | inactive: -0.011 | inactive: 0.022 | inactive: 0 | inactive: -0.005 | inactive: 0.015 | inactive: -0.025 | inactive: 0.04 | inactive: 0.025 | inactive: -0.005 | inactive: -0.108 | inactive: -0.031 | inactive: 0.034 | inactive: -0.041 | inactive: 0.005 |

Look-ups from above:
MRPL58 (UniProt Q14197) | log2 fold change (zotarolimus): inactive: 0.105
MTDH (UniProt Q86UE4) | log2 fold change (doramapimod): inactive: 0.228
